PubChem BioAssay AID686938, Drosophila RNAi Screening Center, 2013
Aim: 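Looking for CRAC channel components and the factors controlling them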 (primary screen). System: Drosophila S2R+ cells. Reagent: long dsRNA against Drosophila genes, about 0.25 µg dsRNA per well, roughly 10,000 cells. Time to read-out: 5 days of knock-down before the calcium assay. Challenge: thapsigargin (SERCA pump blocker) to empty calcium stores; entry signal taken 4 min after adding it. Measured: 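Duplicate raw fluo-4 intensities per well from a plate reader, at rest and four minutes after thapsigargin emptied calcium stores; entry-to-rest ratio filled for only some wells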. Direction: calcium entry signal: higher = stronger calcium signal after store depletion; entry to resting ratio: higher = more calcium entry relative to resting level; resting calcium signal: higher = higher resting calcium signal. Hit rule: 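Hit if the duplicate-averaged plate z-score for entry over resting signal is under −3; wells with weak total dye signal (Fmax z < −2) or more than 5 off-targets removed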. Calls: active = strongly reduced calcium entry; inactive = no strong reduction.
The deposit covers about 23,000 reagents; below is a random part of those with a known target gene and a result. Over the whole deposit, 75 (0.33%) got an active call. 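Raw plate signals without normalisation; calls rest on plate z-scores that were not deposited; ratio present for only 364 wells.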 Not stated in the record: the dose of the treatment.

target gene | DRSC id | calcium entry signal, replicate 1 (fluorescence units) | calcium entry signal, replicate 2 (fluorescence units) | entry to resting ratio | resting calcium signal, replicate 1 (fluorescence units) | resting calcium signal, replicate 2 (fluorescence units) | Call
CR14033 | DRSC02358 | 4.19e7 | – | – | 2.22e7 | – | inactive
Sras | DRSC11287 | 3.79e7 | 5.69e7 | – | 1.76e7 | 2.45e7 | inactive
Ccp84Ad | DRSC12589 | 5.12e7 | 3.61e7 | – | 2.73e7 | 1.57e7 | inactive
Ccp84Ad | DRSC22854 | 2.50e7 | 3.75e7 | – | 1.23e7 | 1.68e7 | inactive
CG43292 | DRSC08883 | 4.05e7 | 5.67e7 | – | 2.32e7 | 2.72e7 | inactive
CG43292 | DRSC21542 | 4.48e7 | 3.45e7 | – | 2.59e7 | 1.73e7 | inactive
O-fut1 | DRSC06138 | 4.69e7 | 4.09e7 | – | 1.92e7 | 1.95e7 | inactive
Ac13E | DRSC19325 | 3.31e7 | 2.99e7 | – | 1.80e7 | 1.28e7 | inactive
Lipt2 | DRSC12338 | 3.86e7 | 4.38e7 | – | 1.72e7 | 2.38e7 | inactive
Lipt2 | DRSC22610 | 3.64e7 | 3.39e7 | – | 2.14e7 | 1.60e7 | inactive
kairos | DRSC19972 | 3.78e7 | 3.98e7 | – | 1.77e7 | 1.79e7 | inactive
kairos | DRSC23286 | 3.75e7 | 4.40e7 | – | 1.85e7 | 1.78e7 | inactive
TwdlK | DRSC16045 | 1.88e7 | 3.24e7 | – | 1.27e7 | 1.79e7 | inactive
a | DRSC04667 | 4.53e7 | 6.00e7 | – | 2.29e7 | 2.71e7 | inactive
a | DRSC04668 | 4.95e7 | 5.91e7 | – | 2.14e7 | 2.34e7 | inactive
svr | DRSC17293 | 4.08e7 | 4.49e7 | – | 2.25e7 | 1.96e7 | inactive
svr | DRSC18841 | 4.84e7 | 5.32e7 | 2.2 | 2.19e7 | 2.25e7 | inactive
alc | DRSC07062 | 5.23e7 | 3.70e7 | – | 2.33e7 | 1.72e7 | inactive
alc | DRSC21464 | 2.58e7 | 3.50e7 | – | 1.46e7 | 1.65e7 | inactive
alc | DRSC23316 | 6.05e7 | 4.43e7 | – | 2.96e7 | 2.35e7 | inactive
fne | DRSC20332 | 3.37e7 | 3.63e7 | – | 2.07e7 | 2.14e7 | inactive
fne | DRSC22418 | 3.18e7 | 3.25e7 | – | 1.54e7 | 1.23e7 | inactive
cib | DRSC18660 | 2.69e7 | 5.07e7 | – | 1.36e7 | 2.70e7 | inactive
CG30413 | DRSC04001 | 1.90e7 | 3.38e7 | – | 1.07e7 | 1.44e7 | inactive
CG42591 | DRSC08905 | 2.06e7 | 3.60e7 | – | 1.21e7 | 1.61e7 | inactive
CG42540 | DRSC08327 | 6.59e7 | 5.37e7 | – | 4.28e7 | 2.39e7 | inactive
CG42540 | DRSC08328 | 2.30e7 | 4.16e7 | – | 1.19e7 | 1.82e7 | inactive
CG42540 | DRSC08593 | 1.75e7 | 3.38e7 | – | 1.16e7 | 1.82e7 | inactive
CG42540 | DRSC23011 | 3.80e7 | 3.41e7 | – | 1.80e7 | 1.65e7 | inactive
CG13733 | DRSC10061 | 3.67e7 | 5.31e7 | – | 1.75e7 | 2.12e7 | inactive
lap | DRSC12628 | 4.51e7 | 4.56e7 | – | 1.81e7 | 1.97e7 | inactive
Rok | DRSC20277 | 3.50e7 | 3.94e7 | – | 1.84e7 | 1.75e7 | inactive
Rok | DRSC23348 | 3.67e7 | 4.40e7 | – | 1.93e7 | 2.20e7 | inactive
Miga | DRSC17821 | 3.16e7 | 4.06e7 | – | 1.63e7 | 1.89e7 | inactive
CG12035 | DRSC08238 | 3.55e7 | 3.33e7 | – | 1.71e7 | 1.67e7 | inactive
Rbpn-5 | DRSC04440 | 3.74e7 | – | – | 1.91e7 | – | inactive
Adf1 | DRSC04941 | 2.98e7 | 6.10e7 | – | 1.49e7 | 2.72e7 | inactive
Adf1 | DRSC04963 | 3.50e7 | – | – | 1.87e7 | – | inactive
CG10904 | DRSC04084 | 3.92e7 | 3.98e7 | – | 1.91e7 | 1.94e7 | inactive
bug | DRSC07137 | 3.01e7 | 2.29e7 | – | 1.42e7 | 1.46e7 | inactive
CG9240 | DRSC20177 | 2.98e7 | 3.62e7 | – | 1.56e7 | 1.54e7 | inactive
CG10183 | DRSC14203 | 3.46e7 | 4.97e7 | – | 1.63e7 | 1.86e7 | inactive
Bruce | DRSC16015 | 3.51e7 | 3.41e7 | – | 1.45e7 | 1.70e7 | inactive
Erk7 | DRSC18127 | 3.51e7 | 5.68e7 | – | 1.71e7 | 2.42e7 | inactive
Erk7 | DRSC18227 | 3.76e7 | 4.89e7 | – | 1.78e7 | 2.42e7 | inactive
Erk7 | DRSC21895 | 3.45e7 | 5.79e7 | – | 1.62e7 | 2.70e7 | inactive
beat-IIIc | DRSC02438 | 4.06e7 | 2.42e7 | – | 1.72e7 | 1.19e7 | inactive
beat-IIIc | DRSC02949 | 4.47e7 | 3.08e7 | – | 1.95e7 | 1.36e7 | inactive
CG13215 | DRSC06337 | 1.84e7 | 3.43e7 | – | 1.03e7 | 1.29e7 | inactive
CG14183 | DRSC10182 | 3.76e7 | 4.99e7 | – | 1.70e7 | 3.11e7 | inactive
Samtor | DRSC04390 | 4.33e7 | – | – | 2.25e7 | – | inactive
CG2736 | DRSC04314 | 3.78e7 | – | – | 1.79e7 | – | inactive
Rpt6 | DRSC20571 | 3.45e7 | 3.09e7 | – | 1.91e7 | 1.43e7 | inactive
CG14515 | DRSC14867 | 2.99e7 | 3.43e7 | – | 1.49e7 | 1.53e7 | inactive
CG43338 | DRSC22055 | 3.16e7 | 4.05e7 | – | 1.65e7 | 2.36e7 | inactive
eag | DRSC19067 | 3.79e7 | 3.55e7 | – | 1.83e7 | 1.52e7 | inactive
eag | DRSC20328 | 4.32e7 | 3.52e7 | – | 2.31e7 | 1.64e7 | inactive
Tbca | DRSC15395 | 2.83e7 | 3.55e7 | – | 1.34e7 | 1.69e7 | inactive

A stretch of the results above, for reference:
target gene | DRSC id | calcium entry signal, replicate 1 (fluorescence units) | calcium entry signal, replicate 2 (fluorescence units) | entry to resting ratio | resting calcium signal, replicate 1 (fluorescence units) | resting calcium signal, replicate 2 (fluorescence units) | Call
CG43292 | DRSC21542 | 4.48e7 | 3.45e7 | – | 2.59e7 | 1.73e7 | inactive
O-fut1 | DRSC06138 | 4.69e7 | 4.09e7 | – | 1.92e7 | 1.95e7 | inactive
Ac13E | DRSC19325 | 3.31e7 | 2.99e7 | – | 1.80e7 | 1.28e7 | inactive
Lipt2 | DRSC12338 | 3.86e7 | 4.38e7 | – | 1.72e7 | 2.38e7 | inactive
Lipt2 | DRSC22610 | 3.64e7 | 3.39e7 | – | 2.14e7 | 1.60e7 | inactive
kairos | DRSC19972 | 3.78e7 | 3.98e7 | – | 1.77e7 | 1.79e7 | inactive
kairos | DRSC23286 | 3.75e7 | 4.40e7 | – | 1.85e7 | 1.78e7 | inactive
TwdlK | DRSC16045 | 1.88e7 | 3.24e7 | – | 1.27e7 | 1.79e7 | inactive
